The source of these data is article PMC3675082.

Sequences of proteins named here, by UniProt entry; tags and fusion partners are left off. Residues count along the entry.
UniProt O60934: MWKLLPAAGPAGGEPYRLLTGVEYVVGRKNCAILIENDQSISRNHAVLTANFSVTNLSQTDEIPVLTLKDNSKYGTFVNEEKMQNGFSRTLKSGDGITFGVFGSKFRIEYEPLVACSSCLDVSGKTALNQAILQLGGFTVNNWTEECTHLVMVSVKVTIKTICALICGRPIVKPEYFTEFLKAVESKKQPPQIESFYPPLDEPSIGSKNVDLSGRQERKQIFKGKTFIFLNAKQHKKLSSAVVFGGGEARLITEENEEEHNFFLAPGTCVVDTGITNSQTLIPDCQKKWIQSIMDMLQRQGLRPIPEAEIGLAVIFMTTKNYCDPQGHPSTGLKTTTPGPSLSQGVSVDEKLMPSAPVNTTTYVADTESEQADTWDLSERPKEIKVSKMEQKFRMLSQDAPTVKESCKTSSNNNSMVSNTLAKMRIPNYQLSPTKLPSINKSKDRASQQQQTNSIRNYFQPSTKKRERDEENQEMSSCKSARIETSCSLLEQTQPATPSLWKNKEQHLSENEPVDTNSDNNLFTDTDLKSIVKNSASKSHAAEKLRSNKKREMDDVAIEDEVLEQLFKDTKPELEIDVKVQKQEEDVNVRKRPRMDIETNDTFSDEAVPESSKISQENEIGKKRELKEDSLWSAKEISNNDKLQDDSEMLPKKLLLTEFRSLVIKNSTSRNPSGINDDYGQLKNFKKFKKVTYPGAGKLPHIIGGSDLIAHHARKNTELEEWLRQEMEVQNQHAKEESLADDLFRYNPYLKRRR
UniProt Q8N122: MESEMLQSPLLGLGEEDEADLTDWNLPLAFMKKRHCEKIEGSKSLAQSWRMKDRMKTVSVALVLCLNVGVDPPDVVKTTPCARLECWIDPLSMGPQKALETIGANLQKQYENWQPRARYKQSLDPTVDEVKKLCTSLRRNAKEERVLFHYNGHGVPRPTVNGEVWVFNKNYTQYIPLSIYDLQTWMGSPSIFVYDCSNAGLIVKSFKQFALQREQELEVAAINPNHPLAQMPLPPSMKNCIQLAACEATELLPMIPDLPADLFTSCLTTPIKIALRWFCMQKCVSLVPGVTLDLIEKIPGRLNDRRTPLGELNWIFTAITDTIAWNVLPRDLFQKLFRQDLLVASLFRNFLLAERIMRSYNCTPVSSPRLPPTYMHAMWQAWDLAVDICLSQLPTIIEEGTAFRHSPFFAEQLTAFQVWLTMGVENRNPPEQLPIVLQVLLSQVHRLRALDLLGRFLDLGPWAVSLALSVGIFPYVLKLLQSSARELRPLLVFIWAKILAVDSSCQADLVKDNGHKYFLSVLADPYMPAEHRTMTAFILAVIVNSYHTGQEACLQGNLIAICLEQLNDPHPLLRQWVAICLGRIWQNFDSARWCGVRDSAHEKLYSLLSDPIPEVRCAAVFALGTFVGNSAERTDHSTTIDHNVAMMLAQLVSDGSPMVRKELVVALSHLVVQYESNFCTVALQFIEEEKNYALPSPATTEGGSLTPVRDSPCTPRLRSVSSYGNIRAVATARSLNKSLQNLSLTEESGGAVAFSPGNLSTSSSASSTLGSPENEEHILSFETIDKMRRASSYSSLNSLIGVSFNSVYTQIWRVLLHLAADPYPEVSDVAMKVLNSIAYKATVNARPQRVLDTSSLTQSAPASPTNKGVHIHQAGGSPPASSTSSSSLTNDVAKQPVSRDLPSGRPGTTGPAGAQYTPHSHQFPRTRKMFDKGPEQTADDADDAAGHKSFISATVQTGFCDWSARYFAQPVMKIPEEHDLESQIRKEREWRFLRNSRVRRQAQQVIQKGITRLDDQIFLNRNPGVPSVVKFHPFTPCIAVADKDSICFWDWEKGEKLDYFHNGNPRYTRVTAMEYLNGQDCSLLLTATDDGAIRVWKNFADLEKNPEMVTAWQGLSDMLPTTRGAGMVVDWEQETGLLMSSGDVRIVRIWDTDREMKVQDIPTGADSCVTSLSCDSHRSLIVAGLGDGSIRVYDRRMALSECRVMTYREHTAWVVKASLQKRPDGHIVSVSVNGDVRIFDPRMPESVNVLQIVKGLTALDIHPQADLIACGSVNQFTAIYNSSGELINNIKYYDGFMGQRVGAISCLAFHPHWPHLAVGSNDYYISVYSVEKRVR
UniProt Q6R327, residues 1-789: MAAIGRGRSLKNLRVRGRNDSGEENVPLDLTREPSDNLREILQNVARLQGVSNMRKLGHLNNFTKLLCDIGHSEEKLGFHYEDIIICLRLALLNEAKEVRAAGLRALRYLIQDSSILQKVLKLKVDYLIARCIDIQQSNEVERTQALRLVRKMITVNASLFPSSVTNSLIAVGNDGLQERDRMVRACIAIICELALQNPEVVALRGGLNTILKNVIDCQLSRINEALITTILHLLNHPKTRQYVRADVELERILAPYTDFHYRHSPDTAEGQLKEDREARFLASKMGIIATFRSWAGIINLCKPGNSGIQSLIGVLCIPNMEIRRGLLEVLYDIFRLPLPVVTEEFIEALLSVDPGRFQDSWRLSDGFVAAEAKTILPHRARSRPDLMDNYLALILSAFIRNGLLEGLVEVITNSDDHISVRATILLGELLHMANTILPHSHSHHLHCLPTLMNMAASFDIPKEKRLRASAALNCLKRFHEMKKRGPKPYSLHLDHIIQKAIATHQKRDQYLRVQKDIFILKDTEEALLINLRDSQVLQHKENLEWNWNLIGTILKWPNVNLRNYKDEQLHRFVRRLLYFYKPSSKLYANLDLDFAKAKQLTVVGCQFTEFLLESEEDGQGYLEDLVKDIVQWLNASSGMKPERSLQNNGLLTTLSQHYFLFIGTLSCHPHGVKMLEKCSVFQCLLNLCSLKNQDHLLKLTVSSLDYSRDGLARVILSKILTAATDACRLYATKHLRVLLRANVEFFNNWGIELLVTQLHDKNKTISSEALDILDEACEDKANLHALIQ

The target of experiment [1] is Flag-NBS1 full length (UniProt O60934). The experiment is described as follows: co-IP; whole cell extracts of 293T cells overexpressing both proteins; lysis in 150 mM NaCl, 1% Nonidet P-40, 1% deoxycholate, 0.1% SDS, 50 mM Tris.HCl pH 7.5; protein-A beads; washed 3 times with TNTG buffer; Western blot.
For experiment [2], the target named is Raptor (endogenous, H1299) (human (endogenous in H1299)) (UniProt Q8N122). Description: co-IP; endogenous proteins, whole cell extracts of H1299 cells; anti-NBS1 or anti-Raptor antibody, protein-A beads; Western blot. (In western blotting, separated proteins are transferred to a membrane and probed.)

These are yes or no findings as the source states them, for the method shown. Binding seen in cells or lysates may run through a third protein. Some binding calls cover weakened binding; strength is not graded here.

“Myc-Rictor1-789 (pCMV-Myc-Rictor 1-789) (from UniProt Q6R327 1-789) (domain or fragment)”: the binding entry in experiment [1] is on record as “binds”.

For “NBS1 (endogenous, H1299) (from UniProt O60934 1-754)”, the binding entry in experiment [2] is given as “no binding”.
